Measured values published in PubChem BioAssay (NCATS).
Inconclusive means that the source gave no clear call. Such entries were picked first, then a sample of the others. Potencies beside an inconclusive call are fits to weak or partial responses and may not hold up. Activity calls are given as the source filed them. The call rests on the fitted dose curve; in most records, active means well fitted curve in the direction sought with a large enough effect; inconclusive means small, poorly fitted or top-dose-only effect, or another doubt; inactive means no such curve, though single readings can be large; an effect the other way counts as inactive or inconclusive.

Protein sequences, listed by entry. Tags and fused reporters are not part of them. Lines headed by an entry give the natural chain unless they say otherwise; changes in a name come on top.
UniProt Q8WZA2: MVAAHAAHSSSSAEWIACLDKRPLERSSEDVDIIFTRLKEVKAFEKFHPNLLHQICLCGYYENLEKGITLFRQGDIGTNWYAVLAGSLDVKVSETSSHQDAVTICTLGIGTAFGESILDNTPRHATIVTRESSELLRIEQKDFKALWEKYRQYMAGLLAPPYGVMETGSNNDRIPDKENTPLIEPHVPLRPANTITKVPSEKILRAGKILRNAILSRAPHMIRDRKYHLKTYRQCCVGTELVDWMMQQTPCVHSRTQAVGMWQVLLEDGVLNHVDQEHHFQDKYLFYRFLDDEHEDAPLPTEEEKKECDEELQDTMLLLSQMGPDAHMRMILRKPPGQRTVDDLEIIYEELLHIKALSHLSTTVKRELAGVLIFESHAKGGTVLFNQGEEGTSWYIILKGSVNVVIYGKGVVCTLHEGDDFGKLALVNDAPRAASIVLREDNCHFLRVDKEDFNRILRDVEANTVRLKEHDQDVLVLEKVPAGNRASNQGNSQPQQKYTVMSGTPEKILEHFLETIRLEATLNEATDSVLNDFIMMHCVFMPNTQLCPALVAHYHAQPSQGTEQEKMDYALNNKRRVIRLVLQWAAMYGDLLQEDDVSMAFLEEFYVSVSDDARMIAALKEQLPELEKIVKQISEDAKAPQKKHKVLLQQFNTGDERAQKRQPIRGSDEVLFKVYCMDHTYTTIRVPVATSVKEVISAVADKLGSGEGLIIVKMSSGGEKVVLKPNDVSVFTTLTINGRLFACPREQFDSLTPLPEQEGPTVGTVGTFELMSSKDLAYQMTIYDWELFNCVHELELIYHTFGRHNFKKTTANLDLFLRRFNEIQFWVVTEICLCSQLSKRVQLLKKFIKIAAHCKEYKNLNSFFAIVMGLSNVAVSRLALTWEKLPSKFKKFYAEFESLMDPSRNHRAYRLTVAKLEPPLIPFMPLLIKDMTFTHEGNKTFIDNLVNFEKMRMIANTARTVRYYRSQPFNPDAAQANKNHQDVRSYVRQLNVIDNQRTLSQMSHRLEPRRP

target: Rap guanine nucleotide exchange factor 4 (Homo sapiens) (UniProt Q8WZA2); test: Confirmatory qHTS for antagonist of cAMP-regulated guanine nucleotide exchange factor 4 (EPAC2) (AID 1645885); settings: EPAC2 Rap1B-BODIPY-GDP exchange fluorescence, biochemical; activity change, negative = inhibition: at 12.7 µM (top of the series) unless noted; series mostly up to 114 µM; further: nearly all actives have a fitted effect of over 25% in size; on activity change, negative = inhibition: on the % scale 0 is the no-effect control and ±100 the full control effect
Potency means the concentration at half of the fitted maximal effect.

Structure (SMILES)	Potency
COc1ccccc1C(=O)Nc1ccccc1C(=O)N1C(C)CCCC1C (stereo not drawn)	inconclusive: 1.51 µM [inhibitor, full curve, poor fit]
Nc1[nH]n2c(=O)cc(-c3ccccc3)nc2c1N=Nc1ccc(S(N)(=O)=O)cc1	inconclusive: 0.19 µM [inhibitor, full curve, poor fit]
COc1ccc(NC(=O)COc2ccccc2C#N)c(S(=O)(=O)N2CCCCC2)c1	inactive
O=C(Nc1sc2c(c1C(=O)O)CCC2)c1ccccc1F	inconclusive: 84.9 µM [inhibitor, single point]
Cn1cccc1-c1cc(C(=O)N/N=C/c2ccc(F)cc2)[nH]n1	inactive
CCN(CC(=O)Nc1ccccc1C(=O)NC1CC1)Cc1cccs1	inconclusive: 1.2 µM [inhibitor, full curve, poor fit]
Cc1ccc(C)c(N(C)C(=O)c2cn(C)c(=O)c3ccccc23)c1	inactive
O=c1ccc(-c2ccccc2)nn1Cc1c(F)cccc1Cl	inactive

target: Rap guanine nucleotide exchange factor 3 (Homo sapiens) (UniProt O95398); test: Counterscreen qHTS for agonist of cAMP-regulated guanine nucleotide exchange factor 3 (EPAC1) (AID 1645889); settings: EPAC1 Rap1B-BODIPY-GDP exchange, fluorescence; activation: at 154 µM (top of the series) unless noted; further: nearly all actives have a fitted effect of over 40% in size; on activation: % of control where 0% means no effect
Procedure, shortened: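 Measured: fluorescence of BODIPY-GDP bound to Rap1B, which falls as exchange proceeds. Conditions include 50 uM competing GDP, 5 and 30 min reads, and a later cAMP challenge for antagonist detection.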

Structure (SMILES)	activation	Potency
COc1ccc(C(=O)c2ccc(OC)c(OC)c2OC)cc1	inconclusive: 30.6% [activator]	–
Cc1nc(-c2ccc(C(=O)Nc3cccc(Br)c3)cc2)cs1	inconclusive: 28.2% [activator]	–
COc1ccccc1Nc1nc2ccc(C)cc2cc1C#N	inconclusive: 35.3% [activator]	–
CCCc1nc2c3ccccc3ccn2c1CC(C)(C)C	inconclusive: 34.7% [activator]	–
CC(=O)c1ccc(N2CCN(C(=O)/C=C/c3ccc4ccccc4n3)CC2)cc1	inconclusive: 30.5% [activator]	–
Cc1cccc(NC(=O)Cn2c(O)c(N=NC(=O)c3ccncc3)c3ccccc32)c1	inconclusive: 33.5% [activator]	–
Cc1ccc(-c2noc(CSc3nnnn3C3CCCCC3)n2)cc1	–	inactive
Cc1ccc(C(=O)NCCCNC(=O)c2ccc(Cl)cc2)cn1	–	inactive
CSCc1cc(N(C)c2ccccc2)nc(-c2ccccc2)n1	inconclusive: 47.5% [activator]	–
C=CCn1c(Cc2ccccc2)nc2c(cnn2-c2ccccc2)c1=O	–	inactive
Cc1cc(C)nc(SCC(=O)c2ccc(F)c(C)c2)n1	inconclusive: 44.5% [activator]	–
CCCCN(CCCC)Cc1cc(=O)oc2cc(C)c(Cl)cc12	–	inactive
CC(=O)OCCNc1cc(N2CCN(C)CC2)c2noc3c2c1C(=O)c1ccccc1-3	–	inactive
O=c1c2ccccc2nc(/C=C/c2cccnc2)n1CCc1ccccc1	–	inactive
COc1ccc(-c2nc3n(c(=O)c2C#N)CCS3)cc1	–	inconclusive: 0.0224 µM [activator, full curve]
COc1ccc(-c2oc3c4c2C(=O)OCCOC4CCC3)cc1 (stereo not drawn)	inconclusive: 41% [activator]	–
COCCn1c(SCc2ccccc2F)nc2ccccc2c1=O	inactive: 12.3% [at 30.8 µM]	–
CC1=CC(C)(C)N(C(=O)c2ccc(F)cc2)c2cc3c(cc21)OCO3	–	inconclusive: 22.4 µM [activator, full curve, poor fit]
COc1cc(OC)c(-c2cc(C(=O)O)ccc2OC)c(OC)c1	inactive: 38.4% [at 30.8 µM]	–
Cc1cc(=O)oc2cc(NC(=O)C(C)Oc3ccccc3)ccc12 (stereo not drawn)	–	inactive

Structure (SMILES)	activation	Potency
CCCOc1ccccc1NC(=O)c1c(-c2ccccc2)noc1C	inconclusive: 44.2% [activator]	–
COc1ccc(C(C(=O)NC(C)(C)C)n2c(=O)c(-c3cc4ccccc4[nH]3)nc3ccccc32)cc1 (stereo not drawn)	–	inconclusive: 8.91 µM [activator, partial curve]
COc1ccc(/C=C2\N=C(SC)N(c3ccccc3OC)C2=O)cc1	–	inconclusive: 11.2 µM [activator, partial curve, poor fit]
CCOc1ccc(/C=C2\SC(=S)N(NS(=O)(=O)c3ccccc3)C2=O)cc1OC	–	inactive
O=C1/C(=C\c2cc([N+](=O)[O-])ccc2O)SC(=S)N1Cc1ccc(Cl)cc1	–	inconclusive: 31.6 µM [activator, partial curve, poor fit]
CCOc1ccccc1C(=O)N(Cc1cccs1)c1ccc(Cl)cc1	–	inactive
COc1ccc(C(C#N)N2N=C(C)CC2c2ccccc2)cc1 (stereo not drawn)	–	inconclusive: 0.631 µM [activator, full curve, poor fit]
Cc1ccc(S(=O)(=O)Nc2ccccc2N2CCCCC2)cc1	inactive: 18.9% [at 30.8 µM]	–
COc1ccc(OC)c(C(=O)c2ccc(Cl)cc2)c1	inconclusive: 41% [activator] [at 30.8 µM]	–
CC(C)CC1C(=O)N(Cc2cn(CCC3OCCCO3)nn2)CCS(=O)(=O)N1Cc1ccc(-c2ccc(F)cc2)cc1 (stereo not drawn)	inconclusive: 33.7% [activator]	–
COc1cccc(N(C(=O)c2ccco2)C(C(=O)NC2CCCC2)c2cccnc2)c1 (stereo not drawn)	inconclusive: 28.8% [activator]	–
Cc1ccc(NC(=O)C2CCCN2S(=O)(=O)c2cccc3nsnc23)c(Br)c1 (stereo not drawn)	–	inconclusive: 63.1 µM [activator, partial curve]
COc1ccccc1C(=O)Nc1ccccc1C(=O)N1C(C)CCCC1C (stereo not drawn)	–	inactive
Nc1[nH]n2c(=O)cc(-c3ccccc3)nc2c1N=Nc1ccc(S(N)(=O)=O)cc1	inconclusive: 20.3% [activator]	–
COc1ccc(NC(=O)COc2ccccc2C#N)c(S(=O)(=O)N2CCCCC2)c1	inconclusive: 26.8% [activator]	–
O=C(Nc1sc2c(c1C(=O)O)CCC2)c1ccccc1F	inconclusive: 26.8% [activator]	–
Cn1cccc1-c1cc(C(=O)N/N=C/c2ccc(F)cc2)[nH]n1	–	inconclusive: 0.0631 µM [activator, full curve, poor fit]
CCN(CC(=O)Nc1ccccc1C(=O)NC1CC1)Cc1cccs1	–	inactive
Cc1ccc(C)c(N(C)C(=O)c2cn(C)c(=O)c3ccccc23)c1	–	inconclusive: 20 µM [activator, single point]
O=c1ccc(-c2ccccc2)nn1Cc1c(F)cccc1Cl	–	inactive

Some of the entries so far, as a markdown table:

| Structure (SMILES) | activation | Potency |
| --- | --- | --- |
| CCCOc1ccccc1NC(=O)c1c(-c2ccccc2)noc1C | inconclusive: 44.2% [activator] | – |
| COc1ccc(/C=C2\N=C(SC)N(c3ccccc3OC)C2=O)cc1 | – | inconclusive: 11.2 µM [activator, partial curve, poor fit] |
